Measurements from US10377778B2, “Lead and thorium compounds” (Sciencons AS, priority 2017, dated 2019).

Assays:
[1] = Dosimetry estimate for dual targeting ^224Ra cation and ^212Pb-labeled PSMA targeting urea derivative; details: Assuming 1:1 ratio between ^224Ra and ^212Pb; 10.5 MBq per patient
[2] = system: C4-2 PSMA positive human prostate cells xenografts; assay: Comparative therapy experiment in nude mice with C4-2 xenografts; assay type: in vivo
Procedure: Male nude mice were inoculated in the flanks with C4-2 PSMA positive human prostate cells and 2 weeks later when tumors were 5-7 mm in diameters. Groups of 8 animals each received saline, 52 MBq of ^177Lu-PSMA-617 or 320 kBq of ^212Pb-p-SCN-Bn-TCMC-PSMA ligand 1. Animals were sacrificed when tumor size reached 20 mm due to animal welfare requirements. […] For ^212Pb the effective half-life was assumed to be 10.6 h, 10% of injected dose per gram decays in tumor and 100% of radiation in a tumor is absorbed in the tumor, 100% retention of ^212Pb and daughters in the tumors and 8 MeV radiation energy per decay. The tumor dosimetry for the injected activities gave on average 35.9 Gy to tumors for ^177Lu-PSMA-617 and 2.06 Gy to tumors for ^212Pb-p-SCN-Bn-TCMC-PSMA ligand 1 groups respectively.

Structure (SMILES)	Dose assessment, Kidneys [1] [Sv/10.5 MBq]	Dose assessment, Salivary glands [1] [Sv/10.5 MBq]	Radiobiological effectiveness (RBE) vs ^177Lu-PSMA-617 ([2]; from tumor growth delay and dose estimates)	Radiation dose (Gy) delivered, times higher than with ^212Pb-p-SCN-Bn-TCMC-PSMA ligand 1 ([2]; radiation dose estimates) [times]
NC(=O)CN1CCN(CC(N)=O)CCN(CC(N)=O)C(Cc2ccc(NC(=S)NCC3CCC(C(=O)NC(Cc4ccc5ccccc5c4)C(=O)NCCCCC(NC(=O)NC(CCC(=O)O)C(=O)O)C(=O)O)CC3)cc2)CN(CC(N)=O)CC1.[212Pb+2] (stereo not shown) [^212Pb-p-SCN-Bn-TCMC-PSMA ligand 1]	0.36	0.60	at least 17	
O=C([O-])CN1CCN(CC(=O)[O-])CCN(CC(=O)NCC2CCC(C(=O)N[C@@H](Cc3ccc4ccccc4c3)C(=O)NCCCC[C@H](NC(=O)N[C@@H](CCC(=O)O)C(=O)O)C(=O)O)CC2)CCN(CC(=O)[O-])CC1.[177Lu+3] (stereo partly shown) [^177Lu-PSMA-617, reference compound]				17
